No constants are given. Whether binding was seen depends on the method and setting. For some assays here: In cells and extracts the contact can be indirect. Some binding calls cover weakened binding; strength is not graded here.
What was measured:
[1] = biological target: full length 13C-15N Arg/Lys labeled Tau (412AA) internal standard protein (human) (UniProt P10636); test: light/heavy Tau ratio with or without immunoaffinity enrichment on anti-Tau mAb beads, LC-MS/MS (n=4)
[2] = biological target: T1, Tau peptide TREPK (Tau amino acids 220-224) (human); test: Luminex bead peptide epitope mapping
T1 sequence (peptide): TREPK

By UniProt entry, the sequences of proteins in these tests, tags left out. Where a name states a change or a piece, a line headed by the entry shows the natural chain unless it says otherwise. Chains listed by the source or under a name are the forms on record and can include a tag or linker.
UniProt P10636: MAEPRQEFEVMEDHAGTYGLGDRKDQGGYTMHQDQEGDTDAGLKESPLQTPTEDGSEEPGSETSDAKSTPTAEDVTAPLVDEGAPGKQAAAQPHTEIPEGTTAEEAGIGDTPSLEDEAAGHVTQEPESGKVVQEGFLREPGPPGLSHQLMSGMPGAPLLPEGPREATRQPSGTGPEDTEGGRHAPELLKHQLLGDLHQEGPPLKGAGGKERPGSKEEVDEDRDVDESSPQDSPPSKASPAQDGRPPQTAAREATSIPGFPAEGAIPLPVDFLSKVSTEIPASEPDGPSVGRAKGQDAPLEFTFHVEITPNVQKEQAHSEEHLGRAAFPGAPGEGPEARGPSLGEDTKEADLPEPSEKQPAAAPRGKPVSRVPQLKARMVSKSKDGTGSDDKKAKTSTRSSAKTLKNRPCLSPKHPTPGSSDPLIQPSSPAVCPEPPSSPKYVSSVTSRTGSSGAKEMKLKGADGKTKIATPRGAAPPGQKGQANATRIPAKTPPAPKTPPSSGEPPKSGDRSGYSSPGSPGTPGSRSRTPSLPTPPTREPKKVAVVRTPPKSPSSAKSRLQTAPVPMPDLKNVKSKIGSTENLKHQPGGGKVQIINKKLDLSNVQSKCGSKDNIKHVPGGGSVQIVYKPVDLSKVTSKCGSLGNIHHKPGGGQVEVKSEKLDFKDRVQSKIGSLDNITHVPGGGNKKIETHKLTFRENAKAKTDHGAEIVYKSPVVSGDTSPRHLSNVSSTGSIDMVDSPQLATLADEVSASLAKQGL
recombinant human Tau isoform 5 (412 amino acids) (P10636, form named): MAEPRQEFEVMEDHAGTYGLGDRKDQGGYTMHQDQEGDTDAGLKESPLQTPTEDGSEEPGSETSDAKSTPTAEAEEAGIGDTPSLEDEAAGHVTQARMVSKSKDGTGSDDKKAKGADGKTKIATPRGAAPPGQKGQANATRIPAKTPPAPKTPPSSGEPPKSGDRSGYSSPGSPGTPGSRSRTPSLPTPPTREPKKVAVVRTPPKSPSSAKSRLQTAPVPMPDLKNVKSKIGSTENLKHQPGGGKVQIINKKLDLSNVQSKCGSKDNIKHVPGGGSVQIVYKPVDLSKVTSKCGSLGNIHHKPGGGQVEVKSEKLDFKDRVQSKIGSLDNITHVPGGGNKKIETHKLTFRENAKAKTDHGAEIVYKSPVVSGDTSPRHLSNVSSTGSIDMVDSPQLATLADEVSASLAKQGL
recombinant human Tau isoform 7 (381 amino acids) (P10636, form named): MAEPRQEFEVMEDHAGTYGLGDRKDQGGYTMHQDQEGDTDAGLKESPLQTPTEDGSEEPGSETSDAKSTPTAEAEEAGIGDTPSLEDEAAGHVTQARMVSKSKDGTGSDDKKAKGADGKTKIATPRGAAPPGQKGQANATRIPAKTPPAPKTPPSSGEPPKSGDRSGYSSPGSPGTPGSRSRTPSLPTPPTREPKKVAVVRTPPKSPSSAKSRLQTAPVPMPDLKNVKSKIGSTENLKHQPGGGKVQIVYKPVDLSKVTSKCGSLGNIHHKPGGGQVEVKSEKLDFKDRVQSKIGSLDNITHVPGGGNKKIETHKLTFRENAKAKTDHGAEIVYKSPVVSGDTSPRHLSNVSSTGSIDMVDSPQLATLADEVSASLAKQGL
recombinant human Tau isoform 4 (352 amino acids) (P10636, form named): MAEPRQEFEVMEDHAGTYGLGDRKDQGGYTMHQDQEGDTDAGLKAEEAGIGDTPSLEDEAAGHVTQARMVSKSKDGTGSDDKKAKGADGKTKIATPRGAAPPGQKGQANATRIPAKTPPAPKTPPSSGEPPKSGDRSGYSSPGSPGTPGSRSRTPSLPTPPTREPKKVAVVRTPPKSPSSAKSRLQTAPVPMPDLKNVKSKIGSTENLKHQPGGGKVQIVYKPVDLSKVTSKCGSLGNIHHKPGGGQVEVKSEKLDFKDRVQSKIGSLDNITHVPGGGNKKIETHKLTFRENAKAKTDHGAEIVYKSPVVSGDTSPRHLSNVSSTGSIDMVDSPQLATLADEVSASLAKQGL
recombinant human Tau isoform 3 (383 amino acids) (P10636, form named): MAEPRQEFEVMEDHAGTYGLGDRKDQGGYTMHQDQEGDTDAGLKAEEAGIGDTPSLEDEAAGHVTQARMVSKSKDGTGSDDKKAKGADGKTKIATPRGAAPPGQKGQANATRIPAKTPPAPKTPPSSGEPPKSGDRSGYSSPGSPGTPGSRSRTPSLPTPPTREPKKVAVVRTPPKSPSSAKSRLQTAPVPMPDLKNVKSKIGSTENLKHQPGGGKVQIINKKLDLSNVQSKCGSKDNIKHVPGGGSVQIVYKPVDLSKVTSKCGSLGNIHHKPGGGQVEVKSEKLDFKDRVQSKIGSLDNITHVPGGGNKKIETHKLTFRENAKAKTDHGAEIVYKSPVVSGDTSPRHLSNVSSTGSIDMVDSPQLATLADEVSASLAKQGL
recombinant human Tau isoform 8 (410 amino acids) (P10636, form named): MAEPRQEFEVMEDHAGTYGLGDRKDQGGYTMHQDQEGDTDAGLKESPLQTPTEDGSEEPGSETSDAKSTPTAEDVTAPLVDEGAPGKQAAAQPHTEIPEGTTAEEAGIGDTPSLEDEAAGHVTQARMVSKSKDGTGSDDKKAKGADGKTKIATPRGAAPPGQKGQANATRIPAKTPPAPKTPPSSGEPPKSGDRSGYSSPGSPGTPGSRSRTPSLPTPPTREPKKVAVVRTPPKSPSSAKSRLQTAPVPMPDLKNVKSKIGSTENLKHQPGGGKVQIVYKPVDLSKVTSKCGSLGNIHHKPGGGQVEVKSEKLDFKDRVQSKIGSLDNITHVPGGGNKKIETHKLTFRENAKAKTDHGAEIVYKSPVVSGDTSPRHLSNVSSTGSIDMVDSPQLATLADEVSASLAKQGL

[3] = biological target: recombinant human Tau isoform 7 (381 amino acids) (human) (UniProt P10636); test: immunoaffinity purification on 13A6 beads, LC-MS/MS
[4] = biological target: recombinant human Tau isoform 4 (352 amino acids) (human) (UniProt P10636); test: as above
[5] = biological target: recombinant human Tau isoform 2 (441 amino acids) (human) (UniProt P10636); test: as above
[6] = biological target: recombinant human Tau isoform 3 (383 amino acids) (human) (UniProt P10636); test: as above
[7] = biological target: recombinant human Tau isoform 8 (410 amino acids) (human) (UniProt P10636); test: as above
[8] = biological target: recombinant human Tau isoform 5 (412 amino acids) (human) (UniProt P10636); test: as above

Measured: binding

B1: mouse monoclonal anti-Tau antibody clone 13A6 (antibody, V domains shown)
VH: EVQLQQSGAELVRPGASVKLPCTASGFNIKDDYMNWVMQRPERGLEWIGWIDPENGDTAYASKFQGKATMTADTSSNTAYLQLSSLTSEDTAVYYCTSGGRFDYWGQGTSLTVSS
VL: DVLMTQTPLSLPVSLGDQASISCRSSQSIVHSNGSTYLEWYLQKPGQSPKLLIYKVSNRFSGVPDRFSGSGSGTDFTLKINRVEAEDLGVYYCFQGSHVPWTFGGGTKLEIK
binds: [1] | [2] | [3] | [4] | [5] | [6] | [7] | [8]

— US20150253341A1
